These results are taken from article PMC7819943, “Rice protein-binding microarrays: a tool to detect cis-acting elements near promoter regions in rice”.

Some of the results follow.

The assay deals with T1, OsSMF1 (Oryza sativa, UniProt Q6ZLB0 1-436).
T1 sequence: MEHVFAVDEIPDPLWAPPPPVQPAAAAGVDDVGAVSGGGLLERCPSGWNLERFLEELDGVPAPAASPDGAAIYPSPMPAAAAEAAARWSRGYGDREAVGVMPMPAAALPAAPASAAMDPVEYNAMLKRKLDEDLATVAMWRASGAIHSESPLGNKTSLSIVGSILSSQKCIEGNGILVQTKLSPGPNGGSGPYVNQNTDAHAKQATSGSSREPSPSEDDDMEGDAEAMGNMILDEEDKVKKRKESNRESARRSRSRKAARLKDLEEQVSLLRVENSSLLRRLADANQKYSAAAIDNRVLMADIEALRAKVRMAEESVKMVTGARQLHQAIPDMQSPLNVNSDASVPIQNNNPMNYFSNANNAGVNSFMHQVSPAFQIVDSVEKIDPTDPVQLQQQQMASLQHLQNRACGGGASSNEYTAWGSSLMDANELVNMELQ
Briefly: protein-binding microarray (RPBM); PBS, 2% BSA, 51.3 ng/ul salmon testes DNA, 50 uM zinc acetate, 200 nM TF, 25 C, 1 h; high values mean tight binding. Particulars: protein: recombinant; tags: N-terminal polyhistidine and DsRed monomer fusion (pET32a); chain copies: 2; label: CyDye5-dUTP incorporated in the synthesized complementary strand; 3' TTTTT single-stranded linker to array surface; dsDNA, one strand shown. The essentials: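 Transcription factors were made in E. coli BL21-CodonPlus as N-terminal fusions to a polyhistidine tag and DsRed, then purified on Ni–NTA. After primer extension with Cy5-dUTP and blocking with 2% BSA, a custom Agilent array was exposed for 1 h at 25 °C to 200 nM protein in PBS, 2% BSA, salmon testes DNA and 50 µM zinc acetate. Washed arrays were scanned on an Axon 4000B, and the binding signal is per-feature fluorescence intensity in arbitrary units.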
As for “GCGCGGCTTTGACCCAGGGATAATCCCACTACTGGCTACTCGGAGTCACCTAGTGCAG”, the binding signal is 3890 fluorescence intensity (a.u.).

Consider “TTCTAATCTCTATGACATCAGAGAACATTCTAACTGACCTCGGAGTCACCTAGTGCAG”, for which the binding signal is 3640 fluorescence intensity (a.u.).

For “TTGGTCGACATGGGTGGGAGGCGGATCGATGACGTAGAATCGGAGTCACCTAGTGCAG”, the binding signal is 5440 fluorescence intensity (a.u.).

With “AATTTGCATCAGCAGTACTGCATCAGCAGTATTACAGATGCGGAGTCACCTAGTGCAG”, the binding signal was 4420 fluorescence intensity (a.u.).

In the case of “ATGACATTGTCCTGCCATTCGTCGTCCCTCCACCGCAATACGGAGTCACCTAGTGCAG”, the binding signal is 3180 fluorescence intensity (a.u.).

Consider “CATGACAAATTAATCCGGCTGCACGTCACGAGCTCGCGCTCGGAGTCACCTAGTGCAG”, for which the binding signal is 6690 fluorescence intensity (a.u.).

With “GGAACAGTACTTGTATGTCACTCCATTCCTCAATGTTATGCGGAGTCACCTAGTGCAG”, the binding signal was 3210 fluorescence intensity (a.u.).

As to “ATGGCTCCAATGTGCTTATGCAAATCCCACATGGCAGTCACGGAGTCACCTAGTGCAG”, the binding signal is 3730 fluorescence intensity (a.u.).

For “ACCCAACGGTGATGATGTCAGCTGACGTGGCGCCCCGGAGCGGAGTCACCTAGTGCAG”, the binding signal was 40500 fluorescence intensity (a.u.).

Turning to “AGGTAATTAAGCTGCGGCGGCTGATCTGCGCTCGATCCTTCGGAGTCACCTAGTGCAG”, the binding signal was 3430 fluorescence intensity (a.u.).

On to “CTATGGCTGATGGTTTCTAGCAAATCGGTCCTGCATTCAACGGAGTCACCTAGTGCAG”, for which the binding signal is 16700 fluorescence intensity (a.u.).

Regarding “CGAGCAAAGGGCCCACGGTGTCAGCTCACATCAGCCGGCCCGGAGTCACCTAGTGCAG”, the binding signal was 3500 fluorescence intensity (a.u.).

As to “ACGGGCCAGTCAACGGACACGTCACCCGGTCAGCGCCATCCGGAGTCACCTAGTGCAG”, the binding signal was 16500 fluorescence intensity (a.u.).

For the sequence “TGGCGCTGAGGTAGCTGCCACGTCAGCTGGGGATCGGCCCCGGAGTCACCTAGTGCAG”, the binding signal is 36300 fluorescence intensity (a.u.).

Turning to “GTCTCCCTCTCCCTCTCCCACCCCGCCTCCCTCCTCGACGCGGAGTCACCTAGTGCAG”, the binding signal is 15300 fluorescence intensity (a.u.).

In the case of “GGCCAGGATGATCGAGCACTTGGTTGTGACACAGAGGGTGCGGAGTCACCTAGTGCAG”, the binding signal was 3220 fluorescence intensity (a.u.).

On to “ATCGCTGGGACACGTCACCTTCCTTTCTATGCTCTCTTGACGGAGTCACCTAGTGCAG”, for which the binding signal was 25900 fluorescence intensity (a.u.).

For “TGTAACTTTGTCACTGTCACGTGGGTCTAATGATCCCTAGCGGAGTCACCTAGTGCAG”, the binding signal was 7840 fluorescence intensity (a.u.).

On to “GCAGTTTGATCACTTAGCTAGATGATCTCCTGCATGCGATCGGAGTCACCTAGTGCAG”, for which the binding signal was 10900 fluorescence intensity (a.u.).

Turning to “GGCACGCTCTTGCGTATCGCCATTGTTCAGGTGAGTCGATCGGAGTCACCTAGTGCAG”, the binding signal is 3400 fluorescence intensity (a.u.).

For the sequence “ATCGTACATGGGCTCTAGACTCAGCACGTGGGGCCAACACCGGAGTCACCTAGTGCAG”, the binding signal is 3330 fluorescence intensity (a.u.).

Regarding “CGACGCCGACTGACTCACCCGCCGGCGAGCCCACGCCGCCCGGAGTCACCTAGTGCAG”, the binding signal was 5630 fluorescence intensity (a.u.).

For the sequence “CTTTTGGCTTTCAGAAATCTGAGGTGTGTACTGCAGTCTTCGGAGTCACCTAGTGCAG”, the binding signal was 3650 fluorescence intensity (a.u.).

“TATAATATTTGCCTCCACCCATGACGTACGGATGTGGACACGGAGTCACCTAGTGCAG”: the binding signal was 5200 fluorescence intensity (a.u.).

In the case of “TTCTCCGGCGACACTGCCACTGCCACGCGTCCCTCCCTTCCGGAGTCACCTAGTGCAG”, the binding signal is 10500 fluorescence intensity (a.u.).

On to “TGACTCGGCCGGCCCGGTTGCTGACTCCGCAAATCCACTGCGGAGTCACCTAGTGCAG”, for which the binding signal was 7140 fluorescence intensity (a.u.).

Regarding “GGAGAAGGGGAGGAGAAGAAAAGAAGAGGCGAAGCCCTGCCGGAGTCACCTAGTGCAG”, the binding signal is 3340 fluorescence intensity (a.u.).

As for “AAGATGTGATGAGTGACGATGACATATTGGGCCACATAGGCGGAGTCACCTAGTGCAG”, the binding signal is 5010 fluorescence intensity (a.u.).

In the case of “TAGCACCACATTGTCAAATCATGACGTAATTAGGCTCAAACGGAGTCACCTAGTGCAG”, the binding signal is 5740 fluorescence intensity (a.u.).

As for “GGCGGCGCCGACGACTCCGCGCCGCTCGGCCTCATCGTCGCGGAGTCACCTAGTGCAG”, the binding signal was 3190 fluorescence intensity (a.u.).

In the case of “ATCATGTCAAAGCACCACGTCAGTGAAACCACTATTAAAACGGAGTCACCTAGTGCAG”, the binding signal was 3720 fluorescence intensity (a.u.).

Take “CTAGCGTCCACCGCCTCTCCGCCACCGCCGCCGCCGCCTCCGGAGTCACCTAGTGCAG”: the binding signal was 10700 fluorescence intensity (a.u.).

Consider “CTCCCGCCGTCTCCGTCACCGTCTACCGTTTGCTCCAGTGCGGAGTCACCTAGTGCAG”, for which the binding signal was 5160 fluorescence intensity (a.u.).

For “TTTGTTTTGATATCTTTATATAAAGTAGTATCGGAGTATTCGGAGTCACCTAGTGCAG”, the binding signal was 3320 fluorescence intensity (a.u.).

In the case of “AGTGGGGATGGGATGTGCAATCCTGGTGCTAGGCGAAATTCGGAGTCACCTAGTGCAG”, the binding signal is 3190 fluorescence intensity (a.u.).

“TTGGAGGATAGGAGCTTGGCCAGCGTGACGAGGCAGAAGCCGGAGTCACCTAGTGCAG”: the binding signal is 5740 fluorescence intensity (a.u.).

Consider “TCTATTAAAGCTGGAGATTAAACACCATCGTACTACTTTGCGGAGTCACCTAGTGCAG”, for which the binding signal is 3800 fluorescence intensity (a.u.).

Consider “CCGTCCTGCTCTTCAGACACCGCAGCATCAAGAAGCCGCCCGGAGTCACCTAGTGCAG”, for which the binding signal is 3290 fluorescence intensity (a.u.).

For “CTCTCAATTCAAATCACCCACGTCAACAGAAGTAATCAGCCGGAGTCACCTAGTGCAG”, the binding signal was 5670 fluorescence intensity (a.u.).

Regarding “ATTAGGGTTTTACACCACCTCTCTCCGTGCTCCTCCTCTCCGGAGTCACCTAGTGCAG”, the binding signal is 15100 fluorescence intensity (a.u.).

For the sequence “TTCTAATACCACATAAACGCCACGTAGGACAAAGACTCGGCGGAGTCACCTAGTGCAG”, the binding signal was 17500 fluorescence intensity (a.u.).

In the case of “CTCTCATGGTGGAGCTGCGTGGCATGGTCATGCCAATACTCGGAGTCACCTAGTGCAG”, the binding signal is 6150 fluorescence intensity (a.u.).
